Assay results reported in the supplement of paper PMC10735217.
Counter-ions that a name gives are not always drawn. The list shows a part of the results. Single values are uncertain here, since repeats match poorly.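 In a drug-repurposing library screen, luminescence reads luciferase driven by eight TEAD-binding elements, stably integrated into human kidney-derived cells. Compounds scoring over five robust Z scores above the plate mean are called hits.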

Test system: HEK293A TEAD-LUC reporter
Assay: TEAD-luciferase reporter activity (YAP activation), robust Z score vs plate; higher = stronger YAP/TEAD activation
Settings: 24 h

Compound | TEAD-luciferase reporter activity (compound concentration: 200 nM) | TEAD-luciferase reporter activity (compound concentration: 2 uM) | TEAD-luciferase reporter activity (compound concentration: 10 uM)
CC[C@H](C)[C@H](NC(=O)[C@H](CO)NC(=O)[C@H](CO)NC(=O)[C@H](CC(C)C)NC(=O)[C@H](CCCCN)NC(=O)[C@H](CCCNC(=N)N)NC(=O)[C@H](CCCNC(=N)N)NC(=O)[C@H](CCCNC(=N)N)NC(=O)[C@H](CCC(N)=O)NC(=O)[C@H](CCCNC(=N)N)NC(=O)[C@H](CCCNC(=N)N)NC(=O)[C@H](CCCCN)NC(=O)[C@H](CCCCN)NC(=O)[C@H](CCCNC(=N)N)NC(=O)CNC(=O)[C@@H](N)Cc1ccc(O)cc1)C(=O)N[C@@H](CCC(=O)O)C(=O)N[C@@H](CO)C(=O)N[C@@H](CC(=O)O)C(=O)N[C@H](C(=O)O)C(C)C | inactive: 1.6 | inactive: 0.123 | inactive: 3.92
Clc1cccc(C(c2ccc3nc[nH]c3c2)n2ccnc2)c1 (configuration not stated) [liarozole] | inactive: -0.478 | inactive: -1.37 | inactive: 0.89
CN1CCN(C2=Nc3cc(Cl)ccc3Nc3ccccc32)CC1 | inactive: 1.13 | – | inactive: -1.35
CN1CCN(C2=Nc3cc(Cl)ccc3Nc3ccccc32)CC1 [clozapine] | – | inactive: -1.62 | –
CC(C)(CN1CCN(C2=Nc3ccccc3Oc3ccccc32)CC1)C(=O)O | inactive: -2.21 | inactive: -0.29 | inactive: 1.42
Nc1cc(COc2c(Cl)cc(C[C@H](N)C(=O)O)cc2Cl)c2oc(-c3ccccc3)nc2c1 [KYT-0353_:_ JPH203 free base] | – | inactive: 0.941 | –
Nc1cc(COc2c(Cl)cc(C[C@H](N)C(=O)O)cc2Cl)c2oc(-c3ccccc3)nc2c1 | inactive: 0.525 | – | inactive: 1.08
CC(C)(C)NCC(O)COc1cccc2c1C[C@H](O)[C@H](O)C2 (some centres not stated) [nadolol, BMS] | – | inactive: 0.218 | –
CC(C)(C)NCC(O)COc1cccc2c1C[C@H](O)[C@H](O)C2 (some centres not stated) | inactive: -0.327 | – | inactive: -0.0304
COC1(c2cc(F)cc(OCc3ccc4c(ccc(=O)n4C)c3)c2)CCOCC1 | inactive: -1.05 | inactive: 0.284 | inactive: -0.546
CC(=O)N(O)C/C=C/c1cccc(Oc2ccccc2)c1 | inactive: 1.07 | inactive: -1.37 | inactive: 1.17
NCCC(O)(P(=O)([O-])O)P(=O)([O-])O [pamidronate, Samchundang] | – | inactive: -0.0446 | –
NCCC(O)(P(=O)([O-])O)P(=O)([O-])O [Pamidronate Disodium] | inactive: 0.00745 | – | inactive: 4.1
CC(=O)SCC(Cc1ccc2c(c1)OCO2)C(=O)N[C@@H](C)C(=O)O (some centres not stated) | inactive: 2.23 | inactive: -0.223 | inactive: 1.46
CN(C)CC1CCCN1C(=O)/C=C/c1ccc(C(F)(F)F)cc1 (configuration not stated) | inactive: 0.582 | inactive: -0.606 | inactive: -1.74
C=C(C)[C@@H]1CC[C@]2(C(=O)O)CC[C@]3(C)[C@H](CC[C@@H]4[C@@]5(C)CC[C@H](O)C(C)(C)[C@@H]5CC[C@]43C)[C@@H]12 [betulinic acid] | – | inactive: 0.685 | –
C=C(C)[C@@H]1CC[C@]2(C(=O)O)CC[C@]3(C)[C@H](CC[C@@H]4[C@@]5(C)CC[C@H](O)C(C)(C)[C@@H]5CC[C@]43C)[C@@H]12 [betulinic acid, Dabur] | inactive: -1.95 | – | inactive: 0.837

Compound | TEAD-luciferase reporter activity (compound concentration: 200 nM) | TEAD-luciferase reporter activity (compound concentration: 2 uM) | TEAD-luciferase reporter activity (compound concentration: 10 uM)
Cc1ccc(-c2ccc(C)cn2)nc1 [Abametapir] | inactive: -0.667 | inactive: 0.677 | inactive: -0.407
Cn1c(=O)c2c(ncn2C)n(C)c1=O | – | inactive: -0.777 | –
Cn1c(=O)c2c(ncn2C)n(C)c1=O [Caffeine] | inactive: -0.927 | – | inactive: 0.81
CN(C)CCCCCCN(C)C [Hexadimethrine bromide] | inactive: -0.566 | inactive: -0.722 | inactive: -0.519
CN1c2c([nH]c(N)nc2=O)NCC1CNc1ccc(C(=O)N[C@@H](CCC(=O)O)C(=O)O)cc1 (some centres not stated) [Prefolic A] | inactive: -1.03 | inactive: -1.54 | inactive: 1.44
Cc1noc(NS(=O)(=O)c2ccccc2-c2ccc(-c3ncco3)cc2)c1C | inactive: -0.517 | inactive: 0.209 | inactive: -0.624
C[C@H]1[C@H](NC(=O)/C(=N\OC(C)(C)C(=O)O)c2csc(N)n2)C(=O)N1S(=O)(=O)O [aztreonam lysine] | – | inactive: -2.2 | –
C[C@H]1[C@H](NC(=O)/C(=N\OC(C)(C)C(=O)O)c2csc(N)n2)C(=O)N1S(=O)(=O)O [aztreonam lysine, Gilead] | inactive: -1.57 | – | inactive: -1.22
CNC[C@@H]1CC[C@@H](N)[C@@H](O[C@H]2[C@H](O)[C@@H](O[C@H]3OC[C@](C)(O)[C@H](NC)[C@H]3O)[C@H](N)C[C@@H]2N)O1 [Micronomicin sulfate] | inactive: -0.461 | inactive: 1.24 | inactive: -0.53
CC(=O)NC(Cc1ccccc1)C(=O)O (configuration not stated) | inactive: -1.54 | inactive: -1.17 | inactive: -0.0166
CC(=O)NCCCC(=O)N1CCC2(CC1)CN(C(C)=O)Cc1ccccc1O2 | inactive: -1.87 | – | inactive: 2.46
CNC(=O)c1cc2c(Oc3ccc(Cl)cc3)cncc2s1 | inactive: -1.97 | inactive: -1.84 | inactive: -1.29
CC1(C(=O)O)CSC(c2ccc(O)cc2O)=N1 (configuration not stated) | inactive: -0.563 | inactive: -0.985 | inactive: -0.276
C[C@H]1COc2c(N3CCN(C)CC3)c(F)cc3c(=O)c(C(=O)O)cn1c23 [Levofloxacin] | – | inactive: -0.663 | –
C[C@H]1COc2c(N3CCN(C)CC3)c(F)cc3c(=O)c(C(=O)O)cn1c23 | inactive: -0.823 | – | inactive: -0.0192
CC1(C)OC(c2ccc(S(N)(=O)=O)cc2)=C(c2cc(F)ccc2F)C1=O | inactive: -3.65 | inactive: 0.395 | inactive: 2.77
CS(=O)c1ccc(-c2nc3n(c2-c2ccncc2)CCC3)cc1 (configuration not stated) | inactive: -1.04 | inactive: -0.815 | inactive: -1.83

Two records picked at random from those above, as already listed:
Compound | TEAD-luciferase reporter activity (compound concentration: 200 nM) | TEAD-luciferase reporter activity (compound concentration: 2 uM) | TEAD-luciferase reporter activity (compound concentration: 10 uM)
CC(C)(CN1CCN(C2=Nc3ccccc3Oc3ccccc32)CC1)C(=O)O | inactive: -2.21 | inactive: -0.29 | inactive: 1.42
C=C(C)[C@@H]1CC[C@]2(C(=O)O)CC[C@]3(C)[C@H](CC[C@@H]4[C@@]5(C)CC[C@H](O)C(C)(C)[C@@H]5CC[C@]43C)[C@@H]12 [betulinic acid, Dabur] | inactive: -1.95 | – | inactive: 0.837
